Source: the supplement of paper PMC7752906
Where a name gives a salt, the structure may show the parent alone. This is one part of the list. Repeats in this data set agree poorly, so a single value says little.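 Test system: Schistosoma mansoni schistosomula, roughly 40 per well, imaged in bright field over time and compared with wells given 0.1% DMSO. Distance read-out: the paper calls a drug a hit when its Mahalanobis distance is at least 2.47, three standard deviations above the DMSO control mean. Degeneracy is the share of worms classified opaque.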

Each compound was assayed on Schistosoma mansoni schistosomula (assay: Mahalanobis distance of static-rate-frequency phenotype descriptors from DMSO controls (dimensionless); higher = stronger phenotypic change versus DMSO). Conditions: 10 µM; 72 h.

SMILES | Mahalanobis distance
CN[C@@H]1[C@@H](O)[C@@H](O[C@@H]2[C@@H](O)[C@H](O[C@H]3OC(CN)=CC[C@H]3N)[C@@H](N)C[C@H]2N)OC[C@]1(C)O [Sisomicin Sulfate] | inactive: 2.37
Cc1cc(NS(=O)(=O)c2ccc(N)cc2)no1 [Sulfamethoxazole] | inactive: 1.82
O=C1CN(/N=C/c2ccc([N+](=O)[O-])o2)C(=O)N1 [Nitrofurantoin] | active: 2.71
Cc1ccccc1OCC(O)CO (stereo not given) [Mephenesin] | inactive: 1.38
CC1(C)S[C@@H]2[C@H](NC(=O)C(C(=O)O)c3ccccc3)C(=O)N2[C@H]1C(=O)O (stereo not given in full) [Carbenicillin Disodium] | inactive: 1.55
C[C@H](N)[C@H](O)c1cccc(O)c1 [Metaraminol] | inactive: 1.31
C[C@H](N)[C@H](O)c1cccc(O)c1 [Metaraminol Bitartrate] | inactive: 2.31
CC(O)(CC(=O)O)CC(=O)O [Meglutol] | inactive: 1.85
NNC(=O)c1ccncc1.Nc1ccc(C(=O)O)c(O)c1 [Pasiniazid] | inactive: 2.03
O=[N+]([O-])c1ccc(O)c2ncccc12 [Nitroxoline] | inactive: 2.27
CCC(C)(C)C(=O)O[C@H]1C[C@@H](C)C=C2C=C[C@H](C)[C@H](CC[C@@H]3C[C@@H](O)CC(=O)O3)[C@H]21 [Simvastatin] | active: 2.48
C[C@@H]1CN(c2c(F)c(F)c3c(=O)c(C(=O)O)cn(C4CC4)c3c2F)C[C@H](C)N1 [Orbifloxacin] | inactive: 1.63
O=S(=O)(c1cccc2cnccc12)N1CCCNCC1 [Fasudil Hydrochloride] | inactive: 1.78
CCc1nn(CCCN2CCN(c3cccc(Cl)c3)CC2)c(=O)n1CCOc1ccccc1 [Nefazodone] | inactive: 2.27
CC(=O)Nc1ccc(OC(C)=O)cc1 [Diacetamate] | inactive: 1.77
CCC1(C)CC(=O)NC1=O (stereo not given) [Ethosuximide] | inactive: 1.8
CCCNC(C)(C)COC(=O)c1ccccc1 [Meprylcaine Hydrochloride] | inactive: 1.8
CN(C)CCOC(=O)C(c1ccccc1)C1(O)CCCC1 (stereo not given) [Cyclopentolate Hydrochloride] | active: 4.95
Nc1nc(/C(=C/CC(=O)O)C(=O)N[C@@H]2C(=O)N3C(C(=O)O)=CCS[C@H]23)cs1 [Ceftibuten] | inactive: 1.57
Nc1ccc(C(=O)O)c(O)c1 [Aminosalicylic Acid] | inactive: 1.79
CCCCN1CCCC[C@H]1C(=O)Nc1c(C)cccc1C [Levobupivacaine] | inactive: 2.31
O=C1O[C@H]([C@@H](O)CO)C(O)=C1O [Ascorbic Acid] | active: 4.33
Clc1ccc(C(c2ccccc2Cl)C(Cl)Cl)cc1 (stereo not given) [Mitotane] | active: 3.1
O=C(O)c1ccccc1Nc1cccc(C(F)(F)F)c1 [Flufenamic Acid] | inactive: 1.9
CC(=O)Nc1ccc(S(=O)(=O)c2ccc(NC(C)=O)cc2)cc1 [Acedapsone] | inactive: 1.73

SMILES | Mahalanobis distance
OC(CCN1CCCCC1)(c1ccccc1)c1ccccc1 [Pridinol] | active: 3.29
CCCCC(=O)N(Cc1ccc(-c2ccccc2-c2nnn[nH]2)cc1)[C@H](C(=O)O)C(C)C [Valsartan] | inactive: 1.58
CCN(CC)CCNC(=O)c1cc(Br)c(N)cc1OC [Bromopride] | inactive: 1.48
OC[C@H]1O[C@@H](O[C@H]2[C@H](O)[C@@H](O)C(O)O[C@@H]2CO)[C@H](O)[C@@H](O)[C@H]1O (stereo not given in full) [Lactose Monohydrate] | inactive: 2.05
CC(C)(C)NC[C@H](O)COc1cccc2c1CCCC2=O [Levobunolol Hydrochloride] | inactive: 1.01
CC(C)(C)NC[C@H](O)COc1cccc2c1CCCC2=O [Levobunolol] | active: 2.58
C[N+](C)(C)CCOC(N)=O [Carbachol] | inactive: 1.7
O=C(NC(Cc1cc(=O)[nH]c2ccccc12)C(=O)O)c1ccc(Cl)cc1 (stereo not given) [Rebamipide] | inactive: 1.34
O=C1c2c(O)ccc(O)c2C(=O)c2c(NCCNCCO)ccc(NCCNCCO)c21 [Mitoxantrone] | active: 4.67
C[C@H](CCC(=O)O)[C@H]1CC[C@H]2[C@@H]3C(=O)C[C@@H]4CC(=O)CC[C@]4(C)[C@H]3CC(=O)[C@]12C [Dehydrocholic Acid] | inactive: 1.78
N[C@@H](Cc1ccc(O)c(O)c1)C(=O)O [Levodopa] | inactive: 1.36
CN1CCN2c3ccccc3Cc3ccccc3C2C1 (stereo not given) [Mianserin] | inactive: 1.84
O=C(O)CCC(=O)c1ccc(-c2ccccc2)cc1 [Fenbufen] | inactive: 1.24
Cc1cccc(N(C)C(=S)Oc2ccc3ccccc3c2)c1 [Tolnaftate] | active: 3.01
O=c1[nH]c(=O)n([C@H]2C[C@H](O)[C@@H](CO)O2)cc1I [Idoxuridine] | active: 2.49
O=C(O)c1cccnc1 [Niacin] | inactive: 1.81
CCN1CCCC1CNC(=O)c1cc(S(N)(=O)=O)ccc1OC (stereo not given) [Sulpiride] | active: 2.5
CC1(C)O[C@@H]2C[C@H]3[C@@H]4C[C@H](F)C5=CC(=O)CC[C@]5(C)[C@H]4[C@@H](O)C[C@]3(C)[C@]2(C(=O)CO)O1 [Flurandrenolide] | inactive: 1.74
O=c1cc[nH]c(=O)[nH]1 [Uracil] | inactive: 1.55
CCC[C@@H]1C[C@@H](C(=O)N[C@@H]([C@H]2O[C@H](SC)[C@H](O)[C@@H](O)[C@H]2O)[C@@H](C)O)N(C)C1 [Lincomycin] | inactive: 1.81
CC/C=C\C/C=C\C/C=C\C/C=C\C/C=C\C/C=C\CCC(=O)O [Doconexent] | inactive: 1.59
CCOc1ccc(Cc2nccc3cc(OCC)c(OCC)cc23)cc1OCC [Ethaverine Hydrochloride] | inactive: 2.33
O=C(Nc1ccc([N+](=O)[O-])cc1Cl)c1cc(Cl)ccc1O [niclosamide] | inactive: 2.23
C#C[C@]1(O)CC[C@H]2[C@@H]3CCC4=Cc5oncc5C[C@]4(C)[C@H]3CC[C@@]21C [Danazol] | active: 2.96
CC(CN(C)C)CN1c2ccccc2CCc2ccccc21 (stereo not given) [Trimipramine] | inactive: 2.22

SMILES | Mahalanobis distance
OC(CCN1CCCC1)(c1ccccc1)C1CCCCC1 (stereo not given) [Procyclidine] | inactive: 2.46
CC(C)NCC(O)COc1cccc2[nH]ccc12 (stereo not given) [Pindolol] | inactive: 1.81
C[N+](C)(C)C[C@H](O)CC(=O)[O-] [Levocarnitine] | active: 3.72
CC(C)C(=O)c1c(C(C)C)nn2ccccc12 [Ibudilast] | inactive: 2.09
C=C1CC[C@H](O)C/C1=C/C=C1\CCC[C@]2(C)[C@@H]([C@H](C)/C=C/[C@H](C)C(C)C)CC[C@@H]12 [Ergocalciferol] | inactive: 2
CC(C)(C)NC(=O)[C@H]1CC[C@H]2[C@@H]3CC[C@H]4NC(=O)C=C[C@]4(C)[C@H]3CC[C@]12C [Finasteride] | active: 3.08
CC(C)(C)CC(C)(C)c1ccc(OCCOCC[N+](C)(C)Cc2ccccc2)cc1 [Benzethonium Chloride] | inactive: 2.09
Cn1nnc2c(C(N)=O)ncn2c1=O [Temozolomide] | inactive: 1.98
CCCCOc1ccc(C(=O)CCN2CCCCC2)cc1 [Dyclonine Hydrochloride] | inactive: 1.75
CC(=O)OCC(=O)[C@@]1(O)CC[C@H]2[C@@H]3CCC4=CC(=O)C=C[C@]4(C)[C@H]3[C@@H](O)C[C@@]21C [Prednisolone Acetate] | inactive: 1.72
NCCc1ccc(O)c(O)c1 [Dopamine Hydrochloride] | inactive: 2.01
CC1(C)O[C@@H]2C[C@H]3[C@@H]4C[C@H](F)C5=CC(=O)C=C[C@]5(C)[C@H]4[C@@H](O)C[C@]3(C)[C@]2(C(=O)CO)O1 [Flunisolide] | inactive: 2.4
CN(Cc1cc(Br)cc(Br)c1N)C1CCCCC1 [Bromhexine] | active: 2.58
C[C@H](CS)C(=O)N1CCC[C@H]1C(=O)O [Captopril] | active: 3.02
COc1cc(NS(=O)(=O)c2ccc(N)cc2)ncn1 [Sulfamonomethoxine] | inactive: 1.78
Cc1cc(C)nc(NS(=O)(=O)c2ccc(N)cc2)n1 [Sulfamethazine] | inactive: 1.39
CN(C(=O)CN(CCO)CC(=O)N(C)C(C)(C)Cc1ccccc1)C(C)(C)Cc1ccccc1 [oxethazaine] | inactive: 1.89
CN1CCN2c3ncccc3Cc3ccccc3C2C1 (stereo not given) [Mirtazapine] | active: 3.09
CCCCCCNC(=O)n1cc(F)c(=O)[nH]c1=O [Carmofur] | active: 3.78
CCCOc1ccccc1-c1nc2[nH]nnc2c(=O)[nH]1 [Zaprinast] | inactive: 1.66
Nc1nc(=O)n([C@@H]2CS[C@H](CO)O2)cc1F [Emtricitabine] | inactive: 1.49
COc1ccc(Cl)cc1C(=O)NCCc1ccc(S(=O)(=O)NC(=O)NC2CCCCC2)cc1 [Glibenclamide, Glyburide] | inactive: 1.77
CCN(CC)CCOCCOC(=O)C1(c2ccccc2)CCCC1 [Carbetapentane Citrate] | inactive: 2.47
C[C@@H]1C[C@H]2[C@@H]3CCC4=CC(=O)C=C[C@]4(C)[C@@]3(F)[C@@H](O)C[C@]2(C)[C@H]1C(=O)CO [Desoximetasone] | inactive: 1.83
CC#CCn1c(N2CCC[C@@H](N)C2)nc2c1c(=O)n(Cc1nc(C)c3ccccc3n1)c(=O)n2C [Linagliptin] | inactive: 1.22

An excerpt of these results, with each value named:
CC(=O)Nc1ccc(OC(C)=O)cc1 [Diacetamate]
  Mahalanobis distance: inactive: 1.77
CC(C)(C)NC[C@H](O)COc1cccc2c1CCCC2=O [Levobunolol Hydrochloride]
  Mahalanobis distance: inactive: 1.01
C[C@H](CCC(=O)O)[C@H]1CC[C@H]2[C@@H]3C(=O)C[C@@H]4CC(=O)CC[C@]4(C)[C@H]3CC(=O)[C@]12C [Dehydrocholic Acid]
  Mahalanobis distance: inactive: 1.78
CCOc1ccc(Cc2nccc3cc(OCC)c(OCC)cc23)cc1OCC [Ethaverine Hydrochloride]
  Mahalanobis distance: inactive: 2.33
